# Reference: PubChem BioAssay AID743266 (National Center for Advancing Translational Sciences (NCATS), 2014)
# Protein sequences, listed by entry. Tags and fused reporters are not part of them.
# UniProt Q03431, whole entry, looked up: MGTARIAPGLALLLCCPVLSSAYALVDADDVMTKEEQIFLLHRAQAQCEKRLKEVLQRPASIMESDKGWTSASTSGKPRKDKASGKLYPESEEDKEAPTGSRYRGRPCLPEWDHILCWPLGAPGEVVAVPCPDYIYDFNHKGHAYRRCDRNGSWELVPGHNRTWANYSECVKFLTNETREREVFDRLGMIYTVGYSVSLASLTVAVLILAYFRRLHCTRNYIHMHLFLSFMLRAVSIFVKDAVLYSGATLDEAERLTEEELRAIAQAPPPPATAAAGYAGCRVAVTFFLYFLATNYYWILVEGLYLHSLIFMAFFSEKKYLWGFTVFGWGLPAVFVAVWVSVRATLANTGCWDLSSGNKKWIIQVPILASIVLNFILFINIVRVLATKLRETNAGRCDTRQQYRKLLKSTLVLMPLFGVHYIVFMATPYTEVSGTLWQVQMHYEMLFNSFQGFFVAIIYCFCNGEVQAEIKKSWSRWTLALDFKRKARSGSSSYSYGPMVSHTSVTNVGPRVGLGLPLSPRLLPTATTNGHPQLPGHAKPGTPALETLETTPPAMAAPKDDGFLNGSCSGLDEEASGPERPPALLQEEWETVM
# In all, about 410,000 compounds went through this assay and about 310 (0.076%) were called active. This list was built around the results that the source calls inconclusive (neither active nor inactive); the mix of calls is not that of the screen. Calls come from the whole dose curve; as a rule, active = well fitted activation curve with a large enough effect; inconclusive = small, poorly fitted or top-dose-only effect, or another doubt; inactive = no such curve, though single readings can be large or run the other way. Potencies of inconclusive entries are doubtful fits and often do not repeat.
# Target: Parathyroid hormone/parathyroid hormone-related peptide receptor (Homo sapiens) (UniProt Q03431)
# Test: qHTS for PTHR1 Agonists: Primary Screen; note: nearly all actives have a fitted effect of over 55% in size
# Details: HEK293 GP2 PTHR1 cells, GloSensor cAMP luminescence, 1 h; activation: at 115 µM (top of the series) unless noted; series mostly up to 115 µM
# Summary of the method: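 HEK-293-derived GP2 cells expressing PTHR1 and a GloSensor cAMP reporter, 3,000/well, plated overnight, given luciferin plus IBMX (each 0.5 mM as added) for 1 h at 37 °C, then compound for 1 h at 37 °C. Luminescence was read after 15 min at room temperature.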
# Potency is the fitted concentration of half-maximal effect.
SMILES,Potency,outcome,activation
CCC(NC(C)C)C(O)c1ccc(O)c(O)c1 (centres undefined),"inconclusive: 1.53 µM [activator, full curve, poor fit]",,
CCN(CC)c1nc(NN)nc(Nc2ccc(C)c(Cl)c2)n1,"inconclusive: 158 µM [activator, single point]",,
CCn1cc(C(=O)N2CCN(c3cccc(C)c3)C(C)C2)c(=O)c2cc(S(=O)(=O)N3CCOCC3)ccc21 (centres undefined),"inconclusive: 100 µM [activator, single point]",,
CCCN1CCN(CCCNC(=O)c2cc3c(s2)-c2ccccc2OC3)CC1,inactive,,
O=C(Nc1nncs1)c1ccccc1NS(=O)(=O)c1cccs1,"inconclusive: 35.5 µM [activator, single point]",,
COc1ccc(Cl)cc1NC(=S)NCc1ccccn1,,inactive,
CC(C)CCSc1nnc2n(-c3ccccc3)c(=O)c3c4c(sc3n12)CC(C)CC4 (centres undefined),"inconclusive: 50.1 µM [activator, partial curve, poor fit]",,
Cc1cc(C)nc(-n2nc(C)c3c2N(Cc2ccccc2C)C(=O)CC3c2ccc(Cl)cc2)n1 (centres undefined),,,inactive: -12.6%
Cc1noc(C)c1NC(=O)N(C)C[C@H]1Oc2c(NC(=O)Nc3ccccc3)cccc2C(=O)N([C@H](C)CO)C[C@@H]1C,"inconclusive: 100 µM [activator, single point]",,
O=C(c1cccc(Br)c1)N1CCN(S(=O)(=O)N2CCCCC2)CC1,"inconclusive: 44.7 µM [activator, partial curve, poor fit]",,
COc1cccc(NC(=O)/C(C#N)=C/c2ccc(-c3ccc(C)cc3)o2)c1,,inactive,
CCOc1ccc(OCc2ccc(C(=O)NN)o2)cc1,"inconclusive: 50.1 µM [activator, partial curve, poor fit]",,
O=C(Nc1ccccc1)C(=O)Nc1ccccn1,,,inactive: -80.5% [at 57.5 µM]
O=C(Cn1cc(S(=O)(=O)c2ccccc2)c(=O)c2cc3c(cc21)OCO3)Nc1ccccc1,"inconclusive: 35.5 µM [activator, single point]",,
CCn1ccnc1CN(C)Cc1cn(-c2cccc(C)c2)nc1-c1cccc(F)c1,"inconclusive: 141 µM [activator, single point]",,
CC(C)c1nn2c(=O)cc(CSc3ccccc3NC(=O)c3ccccc3F)nc2s1,"inconclusive: 28.2 µM [activator, full curve]",,
Cn1cnnc1SCC(=O)Nc1sc2c(c1C(N)=O)CCC2,"inconclusive: 50.1 µM [activator, single point]",,
CCOc1ccccc1CNC(=O)c1ccc2c(c1)nc1n2CCC(C)C1 (centres undefined),"inconclusive: 35.5 µM [activator, partial curve, poor fit]",,
CCOC(=O)C1=CC[C@H]2c3c(c4ccc(OC)cc4n3C)C(=O)C1N2S(=O)(=O)c1ccc(C)cc1,,,inactive: -3.68%
Cc1noc(C)c1NC(=O)Nc1ccc2c(c1)C(=O)N([C@H](C)CO)C[C@H](C)[C@@H](CN(C)C(=O)Nc1ccc(C(F)(F)F)cc1)O2,"inconclusive: 141 µM [activator, single point]",,
COc1ccccc1CNC(=O)CCS(=O)(=O)c1cccs1,"inconclusive: 15.8 µM [activator, partial curve, poor fit]",,
CC(C)C(O)(CC#CCN1CCCC1)c1ccccc1 (centres undefined),"inconclusive: 11.2 µM [activator, full curve, poor fit]",,
c1cc(-c2nnc3sc(C4CCCCC4)nn23)ccn1,"inconclusive: 20 µM [activator, partial curve, poor fit]",,

SMILES,Potency,outcome,activation
CCCOc1ccc(C(NC(=O)CC(C)C)NC(=O)CC(C)C)cc1OC,"inconclusive: 141 µM [activator, single point]",,
COc1ccc(N2CCN(C(=O)Cn3c(-c4cccs4)cc4ccccc43)CC2)cc1,"inconclusive: 50.1 µM [activator, partial curve, poor fit]",,
CC(Sc1nnc(-c2ccncc2)n1-c1ccc(F)cc1)C(=O)NC1CC1 (centres undefined),,,inconclusive: -61.4% [activator]
CCc1cc2c3c(c(=O)oc2cc1OC(C)C(=O)O)CCCC3 (centres undefined),"inconclusive: 8.91 µM [activator, partial curve, poor fit]",,
CCc1ccccc1NC(=O)Nc1cc(C(=O)NCc2ccccc2OC)ccc1N1CCCC1,,,inactive: -2.64%
COc1ccccc1N=Nc1nc(-c2ccccc2)c(-c2ccccc2)[nH]1,,,inactive: -10.9%
Cc1ccc(/C=C/c2nc3sc(C(=O)O)c(C)c3c(=O)[nH]2)cc1[N+](=O)[O-],"inconclusive: 56.2 µM [activator, partial curve, poor fit]",,
CC(=O)Nc1ccc(CN2CCC(N3CCC(C(=O)NC4CC4)CC3)CC2)cc1,,inactive,
CC1=C(C(=O)N2CCN(c3cccc(Cl)c3)CC2)C2(CCCCC2)OC1=O,,,inactive: -8.58%
Cc1ccc2nc(COc3ccccc3NC(=O)c3ccc(F)cc3)cc(=O)n2c1,"inconclusive: 158 µM [activator, single point]",,
CN(C)C(=O)CSc1nnc(C23CC4CC(CC(C4)C2)C3)o1,"inconclusive: 35.5 µM [activator, partial curve, poor fit]",,
COc1ccc(CCNc2ccc([N+](=O)[O-])cn2)cc1,,,inconclusive: -71.3% [activator]
CCOc1ccc(NC(=O)C2CC(=O)N(c3ccccc3F)C2)cc1 (centres undefined),"inconclusive: 14.1 µM [activator, partial curve]",,
CCOC(=O)c1csc(NC(=O)CN2CCN(C)CC2)n1,"inconclusive: 89.1 µM [activator, partial curve, poor fit]",,
O=C(COc1ccccc1)N=C1SC2CS(=O)(=O)CC2N1c1ccc(F)cc1F (centres undefined),,inactive,
COc1ccc(CC(O)CC2c3c(cc4c(c3OC)OCO4)CCN2C)cc1 (centres undefined),,,inactive: -18.1%
O=C(CNS(=O)(=O)c1ccccc1)OCC(=O)c1ccc(F)cc1,"inconclusive: 126 µM [activator, single point]",,
Nc1cccc2cccc([N+](=O)[O-])c12,"inconclusive: 6.31 µM [activator, partial curve]",,
CC(OC(=O)CN(C)S(=O)(=O)c1ccc(Cl)cc1)C(=O)Nc1cccc(Cl)c1 (centres undefined),,,inactive: -19.9% [at 57.5 µM]
CCS(=O)(=O)N1CC(=O)N(c2ccc(Cl)cc2)C(C)(C(=O)NC2CCCCCC2)C1 (centres undefined),"inconclusive: 15.8 µM [activator, single point]",,
CCN1CCN(c2ncc3c(n2)CC(c2ccccc2O)CC3=O)CC1 (centres undefined),,,inconclusive: 48% [activator]
O=C(CCc1ccccc1)Oc1ccccc1[N+](=O)[O-],,,inconclusive: 17% [activator]
O=C1c2ccccc2C(=O)N1CCCCSc1nc2ccccc2o1,,,inactive: -13.4%

# Individual results from the list:
# Value for CCOC(=O)c1csc(NC(=O)CN2CCN(C)CC2)n1 under Potency: inconclusive: 89.1 µM [activator, partial curve, poor fit]
# Value for CC(=O)Nc1ccc(CN2CCC(N3CCC(C(=O)NC4CC4)CC3)CC2)cc1 under outcome: inactive
# Value for CC(Sc1nnc(-c2ccncc2)n1-c1ccc(F)cc1)C(=O)NC1CC1 (centres undefined) under activation: inconclusive: -61.4% [activator]
# Value for CCOc1ccc(NC(=O)C2CC(=O)N(c3ccccc3F)C2)cc1 (centres undefined) under Potency: inconclusive: 14.1 µM [activator, partial curve]

# Following part.

SMILES,Potency,outcome,activation
CCc1nc2c(OCc3cccc(Cl)c3)cccn2c1N(C)C(=O)C1CC1,"inconclusive: 50.1 µM [activator, partial curve, poor fit]",,
CCNC(=O)NC(=O)C(C)OC(=O)c1oc2ccc(OCC)cc2c1C (centres undefined),,,inconclusive: 21.8% [activator] [at 57.5 µM]
CC(=O)c1cccc(NC(=O)CSc2nc(=O)n(Cc3ccco3)c3c2CCC3)c1,,,inactive: -23.1%
CS(=O)(=O)N(CC(=O)N1CCOCC1)c1cc(Cl)ccc1Cl,"inconclusive: 70.8 µM [activator, partial curve, poor fit]",,
O=S(=O)(c1ccccc1)N1CCSC1c1ccco1 (centres undefined),,,inactive: -10.2%
CN(CCCNC(=O)C1CCC(=O)N1Cc1ccccc1Cl)c1ccccc1 (centres undefined),"inconclusive: 63.1 µM [activator, single point]",,
Oc1ccc2ccccc2c1N=Nc1ccccn1,,inactive [at 57.5 µM],
COc1ccc(OC)c(CNC(=O)c2ccc3c(c2)c(C)c(C)n3Cc2ccc(Cl)cc2)c1,"inconclusive: 56.2 µM [activator, partial curve, poor fit]",,
COC(=O)c1c(NC(=O)Cc2coc3cc(C)ccc23)sc2c1CCC2,,,inconclusive: 30.8% [activator]
Cc1ccc(S(=O)(=O)N2CCSC2C(=O)O)cc1 (centres undefined),,,inconclusive: 54.6% [activator] [at 57.5 µM]
COCCn1c(-c2ccc(OC)cc2)nc2ccccc21,,inactive,
CCOC(=O)c1c(C)[nH]c(C)c1S(=O)(=O)NCC(=O)Nc1cccc(C#N)c1,,,inconclusive: 34.7% [activator]
COc1cc([N+](=O)[O-])ccc1NC(=O)CC1SC(=Nc2ccc(F)cc2)N(CCC2=CCCCC2)C1=O (centres undefined),,,inactive: -14%
CC(C)CC(N)c1csc(Nc2ccc(C(=O)c3ccccc3)cc2)n1 (centres undefined),,,inconclusive: -57.8% [activator]
COc1cccc(CN2CC(C(=O)NCCOc3cccnc3)CCC2=O)c1 (centres undefined),"inconclusive: 39.8 µM [activator, single point]",,
COC(=O)c1[nH]cnc1C(=O)c1ccccc1,"inconclusive: 35.5 µM [activator, single point]",,
CC(CCn1cccn1)NC(=O)c1cc(COc2ccc(F)cc2F)on1 (centres undefined),,,inactive: -18.2%
Cc1ccc(CSc2nnc(-c3cccnc3)n2N)cc1,"inconclusive: 1.26 µM [activator, full curve, poor fit]",,
CC(=O)c1ccc(NS(=O)(=O)c2c(C)nc3scc(C)n3c2=O)cc1,"inconclusive: 100 µM [activator, partial curve, poor fit]",,
COc1ccc(OC)c(NC(=O)CN2C(=O)CC(C)Sc3ccccc32)c1 (centres undefined),,inactive,
Clc1ccccc1-c1nnc(COc2ccccc2)o1,,inactive,
CN1CCC(=O)N([C@H](CSc2ccc(Br)cc2)Cc2ccccc2)CC1,,,inconclusive: -10.7% [activator]
Brc1ccc(-c2cnnc(N3CCCC3)n2)cc1,"inconclusive: 28.2 µM [activator, partial curve, poor fit]",,
